Amino acid sequences for entries named in this document (tags omitted). A change or cut given only in a name is not applied to a line headed by its entry.
UniProt Q13569: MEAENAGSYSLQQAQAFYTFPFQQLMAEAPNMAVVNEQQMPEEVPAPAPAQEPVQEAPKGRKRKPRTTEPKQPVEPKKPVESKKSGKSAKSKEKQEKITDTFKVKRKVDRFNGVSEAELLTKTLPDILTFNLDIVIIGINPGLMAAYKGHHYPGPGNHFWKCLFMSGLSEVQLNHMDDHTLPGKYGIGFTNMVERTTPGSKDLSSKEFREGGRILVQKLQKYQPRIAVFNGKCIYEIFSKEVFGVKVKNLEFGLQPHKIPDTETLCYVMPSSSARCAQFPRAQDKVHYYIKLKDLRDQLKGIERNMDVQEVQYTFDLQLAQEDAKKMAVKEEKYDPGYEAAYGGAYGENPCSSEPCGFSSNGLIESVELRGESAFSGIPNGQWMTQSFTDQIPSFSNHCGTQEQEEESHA

According to PMC13022674:

Target: TDG (thymine DNA glycosylase) (human) (UniProt Q13569)
Test: EMSA
Settings: range given for all R-loop substrates, EMSA: 5 nM substrate, 100 mM NaCl, 2.5 mM MgCl2, 10 mM Tris-HCl pH 7.5, 5% glycerol, 30 min 30 C, 0.6% agarose 1x TBE 4 C, recombinant protein, residues 1-410, protein details: His tag (pET28a, TALON purified), label: 5'-Cy5 strand 1 (Table S1 dU version)

| Sequence | binding result (strand 3 RNA) | also measured |
| --- | --- | --- |
| TCCTAGTGTCCACCAAATTCCTCAGCGCTCGCTCACCCTCCTCTACGGCCACGACTCTGGGAGTG / CACTCCCAGAGTCGTGGCCGTAGAG / GAGGGUGAGCGAGCG / CTGAGGAATTTGGTGGACACTAGGA [TCF21-hybrid (unmodified)] | – | binding result (strand 3 (S25) RNA): binds |
| TCCTAGTGTCCACCAAATTCCTCAGCGCTCGCTCACCCTCCTCTACGGCCACGACTCTGGGAGTG / CACTCCCAGAGTCGTGGCCGTAGAGTCTTAAAGTATGATACTGAGGAATTTGGTGGACACTAGGA / GAGGGUGAGCGAGCG [TCF21-loop (unmodified)] | binds | – |
| TCCTAGTGTCCACCAAATTCCTCAGCGCTCGCTCACCCTCCTCTACGGCCACGACTCTGGGAGTG / CACTCCCAGAGTCGTGGCCGTAGAGTCTTAAAGTATGATATCTTAAAGCACTATACTGAGGAATTTGGTGGACACTAGGA / GAGGGUGAGCGAGCG [TCF21-loopEX (unmodified)] | binds | – |
| TCCTAGTGTCCACCAAATTCCTCAGCGCTCGCTCACCCTCCTCTACGGCCACGACTCTGGGAGTG / TCTTAAAGTATGATACTGAGGAATTTGGTGGACACTAGGA / CACTCCCAGAGTCGTGGCCGTAGAG / GAGGGUGAGCGAGCG [TCF21-flap (unmodified)] | – | binding result (strand 4 RNA): binds |

The exact form of at least one protein or probe is not confirmed. At least one verdict rests on a figure or table, not on a statement of the authors.
